This is an account of results in paper PMC10680230.

The chains behind the UniProt entries cited, without tags or fusion partners.
UniProt P62258: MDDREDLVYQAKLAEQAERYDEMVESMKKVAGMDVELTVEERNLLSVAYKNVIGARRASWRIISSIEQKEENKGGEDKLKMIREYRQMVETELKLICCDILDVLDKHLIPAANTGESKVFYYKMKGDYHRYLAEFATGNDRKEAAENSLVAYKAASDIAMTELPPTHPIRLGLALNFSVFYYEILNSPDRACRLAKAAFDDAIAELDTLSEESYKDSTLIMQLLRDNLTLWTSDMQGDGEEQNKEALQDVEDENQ

Results are given in words; binding and its absence hold for the method and conditions named. Binding seen in cells or lysates may run through a third protein. Here binding means that the protein was enriched with, or labelled near, the bait; the list need not be complete. No binding means not detected with the bait.

This assay deals with T1, Thyroid hormone receptor-interacting protein 13 (TRIP13) (human (endogenous in H929)) (UniProt Q15645).
T1 sequence: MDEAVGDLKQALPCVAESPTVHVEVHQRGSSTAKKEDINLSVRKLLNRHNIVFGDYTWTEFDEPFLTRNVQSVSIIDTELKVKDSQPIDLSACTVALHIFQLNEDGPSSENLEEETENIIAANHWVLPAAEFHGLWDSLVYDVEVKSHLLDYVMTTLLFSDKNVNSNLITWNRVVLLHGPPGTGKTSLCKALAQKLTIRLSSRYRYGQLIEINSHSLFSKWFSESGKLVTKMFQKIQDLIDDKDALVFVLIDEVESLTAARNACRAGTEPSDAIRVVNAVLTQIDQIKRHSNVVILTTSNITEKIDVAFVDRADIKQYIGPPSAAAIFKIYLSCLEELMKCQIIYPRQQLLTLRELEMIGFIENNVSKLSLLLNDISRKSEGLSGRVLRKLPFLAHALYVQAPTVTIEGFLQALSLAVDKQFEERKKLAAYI
In words: affinity purification with mass spectrometry; liquid chromatography-tandem mass spectrometry to identify potential TRIP13-interacting proteins; cells, capture of TRIP13 and conditions not told.
As to ERK, the binding entry is listed as “no binding”. In the case of RAF, the binding result is listed as “no binding”. Regarding MEK, the binding result is on record as “no binding”.

As to YWHAE (from UniProt P62258 1-255), the binding result was “binds”.
